Laboratory results published in patent publication US8030443B2, “Squamous cell carcinoma antigen-derived peptide binding to HLA-A24 molecule” (Kurume University, priority 2005, dated 2011).
Part of at least one peptide drawing is inferred or uncertain, most often the ends. Residues, ends and D or L forms follow the SMILES beside them.

Test system: peptide-specific IgG in sera of cancer patients and healthy donors
Test: Measurement of anti-peptide IgG in plasma by LUMINEX multiplexed flow cytometric assay
Format: binding, human
Method: The levels of anti-peptide immunoglobulin G (IgG) were measured by the LUMINEX™ system (multiplexed flow cytometric assay) as previously reported (Komatsu N, Shichijo S, Nakagawa M, Itoh K. New multiplexed flow cytometric assay to measure anti-peptide antibody: a novel tool for monitoring immune responses to peptides used for immunization. Scand J Clin Lab Invest 2004; 64:1-11). In brief, plasma was incubated with 25 μl of peptide-coupled color-coded beads for 2 hr at room temperature on a plate shaker. After incubation, the mixture was washed with a vacuum manifold apparatus and incubated with 100 μl of biotinylated goat anti-human IgG (γ chain-specific)(BA-3080, Vector Laboratories, Burlingame, Calif., USA) for 1 h at room temperature. The plate was then washed, followed by the addition of 100 μl of streptavidin-PE (S-866, Molecular Probes, Eugene, Oreg., USA) into wells, and was incubated for 30 min at room temperature on a plate shaker. The bound beads were washed three times followed by the addition of 100 μl of Tween-PBS into each well. Fifty μl of sample was detected using the LUMINEX™ system (multiplexed flow cytometric assay). To confirm the specificity of IgG to a SCCA peptide, sample plasma was cultured in plates coated with a corresponding SCCA peptide, or with an irrelevant SCCA peptide. After the operation was repeated three times, the levels of the corresponding SCCA peptide-specific IgG in the resulting supernatant were determined by the LUMINEX™ system (multiplexed flow cytometric assay).
These 9 SCCA-derived peptides were screened based on their ability to be recognized by IgG in cancer patients. Peptide-specific IgG was measured by a multiplexed flow cytometric assay (LUMINEX™ (multiplexed flow cytometric assay)). The plasma samples were derived from 35 uterine cervical SCC patients, 10 breast adenocarcinoma patients, 10 pancreatic adenocarcinoma patients, 10 gastric adenocarcinoma, and 6 colon adenocarcinoma patients. The level of fluorescence intensity was judged to be significant when exceeded 100 at an 1/100 dilution.

CC(C)C[C@H](NC(=O)[C@H](CO)NC(=O)[C@H](C)NC(=O)[C@H](Cc1ccccc1)NC(=O)[C@H](Cc1c[nH]cn1)NC(=O)[C@H](Cc1ccccc1)NC(=O)[C@H](CO)NC(=O)[C@@H](NC(=O)[C@H](Cc1ccc(O)cc1)NC(=O)[C@@H](N)CCC(N)=O)[C@@H](C)O)C(=O)O [SCCA 215, QYTSFHFASL] (H-QYTSFHFASL-OH)
Total: healthy donors with significant peptide-reactive IgG / donors tested (10 healthy donors, significant when fluorescence intensity exceeded 100 at 1/100 dilution): 3/10 | Total: cancer patients with significant peptide-reactive IgG / patients tested (71 cancer patients, significant when fluorescence intensity exceeded 100 at 1/100 dilution): 24/71 | Specificity of IgG reactive to the peptide (absorption assay: corresponding vs irrelevant SCCA peptide-coated wells (FIG. 3)): confirmed by absorption assay | Fluorescence intesity (serum of Breast Ca. patient #36, 1:100 dilution): 281 | Fluorescence intesity (serum of Breast Ca. patient #37, 1:100 dilution): 47 | Fluorescence intesity (serum of Breast Ca. patient #38, 1:100 dilution): 142 | Fluorescence intesity (serum of Breast Ca. patient #39, 1:100 dilution): 102 | Fluorescence intesity (serum of Breast Ca. patient #40, 1:100 dilution): 30 | Fluorescence intesity (serum of Breast Ca. patient #41, 1:100 dilution): 236 | Fluorescence intesity (serum of Breast Ca. patient #42, 1:100 dilution): 76 | Fluorescence intesity (serum of Breast Ca. patient #43, 1:100 dilution): 81 | Fluorescence intesity (serum of Breast Ca. patient #44, 1:100 dilution): 131 | Fluorescence intesity (serum of Breast Ca. patient #45, 1:100 dilution): 123 | Fluorescence intesity (serum of Colon Ca. patient #66, 1:100 dilution): 16 | Fluorescence intesity (serum of Colon Ca. patient #67, 1:100 dilution): 74 | Fluorescence intesity (serum of Colon Ca. patient #68, 1:100 dilution): 0 | Fluorescence intesity (serum of Colon Ca. patient #69, 1:100 dilution): 41 | Fluorescence intesity (serum of Colon Ca. patient #70, 1:100 dilution): 59 | Fluorescence intesity (serum of Colon Ca. patient #71, 1:100 dilution): 23 | Fluorescence intesity (serum of Gastric Ca. patient #56, 1:100 dilution): 152 | Fluorescence intesity (serum of Gastric Ca. patient #57, 1:100 dilution): 8 | Fluorescence intesity (serum of Gastric Ca. patient #58, 1:100 dilution): 9 | Fluorescence intesity (serum of Gastric Ca. patient #59, 1:100 dilution): 1453 | Fluorescence intesity (serum of Gastric Ca. patient #60, 1:100 dilution): 17 | Fluorescence intesity (serum of Gastric Ca. patient #61, 1:100 dilution): 47 | Fluorescence intesity (serum of Gastric Ca. patient #62, 1:100 dilution): 0 | Fluorescence intesity (serum of Gastric Ca. patient #63, 1:100 dilution): 0 | Fluorescence intesity (serum of Gastric Ca. patient #64, 1:100 dilution): 44 | Fluorescence intesity (serum of Gastric Ca. patient #65, 1:100 dilution): 10 | Fluorescence intesity (serum of Healthy Donor #1, 1:100 dilution): 0 | Fluorescence intesity (serum of Healthy Donor #2, 1:100 dilution): 164 | Fluorescence intesity (serum of Healthy Donor #3, 1:100 dilution): 14 | Fluorescence intesity (serum of Healthy Donor #4, 1:100 dilution): 0 | Fluorescence intesity (serum of Healthy Donor #5, 1:100 dilution): 87 | Fluorescence intesity (serum of Healthy Donor #6, 1:100 dilution): 0 | Fluorescence intesity (serum of Healthy Donor #7, 1:100 dilution): 0 | Fluorescence intesity (serum of Healthy Donor #8, 1:100 dilution): 427 | Fluorescence intesity (serum of Healthy Donor #9, 1:100 dilution): 41 | Fluorescence intesity (serum of Healthy Donor #10, 1:100 dilution): 134 | Fluorescence intesity (serum of Pancreas Ca. patient #46, 1:100 dilution): 0 | Fluorescence intesity (serum of Pancreas Ca. patient #47, 1:100 dilution): 27 | Fluorescence intesity (serum of Pancreas Ca. patient #48, 1:100 dilution): 468 | Fluorescence intesity (serum of Pancreas Ca. patient #49, 1:100 dilution): 174 | Fluorescence intesity (serum of Pancreas Ca. patient #50, 1:100 dilution): 10 | Fluorescence intesity (serum of Pancreas Ca. patient #51, 1:100 dilution): 0 | Fluorescence intesity (serum of Pancreas Ca. patient #52, 1:100 dilution): 198 | Fluorescence intesity (serum of Pancreas Ca. patient #53, 1:100 dilution): 50 | Fluorescence intesity (serum of Pancreas Ca. patient #54, 1:100 dilution): 36 | Fluorescence intesity (serum of Pancreas Ca. patient #55, 1:100 dilution): 6 | Fluorescence intesity (serum of Uterine cervical Ca. patient #1, 1:100 dilution): 37 | Fluorescence intesity (serum of Uterine cervical Ca. patient #2, 1:100 dilution): 15 | Fluorescence intesity (serum of Uterine cervical Ca. patient #3, 1:100 dilution): 25 | Fluorescence intesity (serum of Uterine cervical Ca. patient #4, 1:100 dilution): 68 | Fluorescence intesity (serum of Uterine cervical Ca. patient #5, 1:100 dilution): 28 | Fluorescence intesity (serum of Uterine cervical Ca. patient #6, 1:100 dilution): 738 | Fluorescence intesity (serum of Uterine cervical Ca. patient #7, 1:100 dilution): 34 | Fluorescence intesity (serum of Uterine cervical Ca. patient #8, 1:100 dilution): 55 | Fluorescence intesity (serum of Uterine cervical Ca. patient #9, 1:100 dilution): 106 | Fluorescence intesity (serum of Uterine cervical Ca. patient #10, 1:100 dilution): 26 | Fluorescence intesity (serum of Uterine cervical Ca. patient #11, 1:100 dilution): 105 | Fluorescence intesity (serum of Uterine cervical Ca. patient #12, 1:100 dilution): 68 | Fluorescence intesity (serum of Uterine cervical Ca. patient #13, 1:100 dilution): 60 | Fluorescence intesity (serum of Uterine cervical Ca. patient #14, 1:100 dilution): 42 | Fluorescence intesity (serum of Uterine cervical Ca. patient #15, 1:100 dilution): 152 | Fluorescence intesity (serum of Uterine cervical Ca. patient #16, 1:100 dilution): 198 | Fluorescence intesity (serum of Uterine cervical Ca. patient #17, 1:100 dilution): 87 | Fluorescence intesity (serum of Uterine cervical Ca. patient #18, 1:100 dilution): 99 | Fluorescence intesity (serum of Uterine cervical Ca. patient #19, 1:100 dilution): 84 | Fluorescence intesity (serum of Uterine cervical Ca. patient #20, 1:100 dilution): 102 | Fluorescence intesity (serum of Uterine cervical Ca. patient #21, 1:100 dilution): 45 | Fluorescence intesity (serum of Uterine cervical Ca. patient #22, 1:100 dilution): 50 | Fluorescence intesity (serum of Uterine cervical Ca. patient #23, 1:100 dilution): 106 | Fluorescence intesity (serum of Uterine cervical Ca. patient #24, 1:100 dilution): 1822 | Fluorescence intesity (serum of Uterine cervical Ca. patient #25, 1:100 dilution): 56 | Fluorescence intesity (serum of Uterine cervical Ca. patient #26, 1:100 dilution): 132 | Fluorescence intesity (serum of Uterine cervical Ca. patient #27, 1:100 dilution): 121 | Fluorescence intesity (serum of Uterine cervical Ca. patient #28, 1:100 dilution): 239 | Fluorescence intesity (serum of Uterine cervical Ca. patient #29, 1:100 dilution): 40 | Fluorescence intesity (serum of Uterine cervical Ca. patient #30, 1:100 dilution): 48 | Fluorescence intesity (serum of Uterine cervical Ca. patient #31, 1:100 dilution): 147 | Fluorescence intesity (serum of Uterine cervical Ca. patient #32, 1:100 dilution): 72 | Fluorescence intesity (serum of Uterine cervical Ca. patient #33, 1:100 dilution): 165 | Fluorescence intesity (serum of Uterine cervical Ca. patient #34, 1:100 dilution): 27 | Fluorescence intesity (serum of Uterine cervical Ca. patient #35, 1:100 dilution): 31
